The assay concerns the target human CDCP1 endogenously expressed on cancer cell lines (human) (UniProt Q9H5V8). In words: live cell immunofluorescence on HCT116 cells.

Sequences of proteins named here, by UniProt entry; tags and fusion partners are left off. A change or cut given only in a name is not applied to a line headed by its entry.
UniProt Q9H5V8: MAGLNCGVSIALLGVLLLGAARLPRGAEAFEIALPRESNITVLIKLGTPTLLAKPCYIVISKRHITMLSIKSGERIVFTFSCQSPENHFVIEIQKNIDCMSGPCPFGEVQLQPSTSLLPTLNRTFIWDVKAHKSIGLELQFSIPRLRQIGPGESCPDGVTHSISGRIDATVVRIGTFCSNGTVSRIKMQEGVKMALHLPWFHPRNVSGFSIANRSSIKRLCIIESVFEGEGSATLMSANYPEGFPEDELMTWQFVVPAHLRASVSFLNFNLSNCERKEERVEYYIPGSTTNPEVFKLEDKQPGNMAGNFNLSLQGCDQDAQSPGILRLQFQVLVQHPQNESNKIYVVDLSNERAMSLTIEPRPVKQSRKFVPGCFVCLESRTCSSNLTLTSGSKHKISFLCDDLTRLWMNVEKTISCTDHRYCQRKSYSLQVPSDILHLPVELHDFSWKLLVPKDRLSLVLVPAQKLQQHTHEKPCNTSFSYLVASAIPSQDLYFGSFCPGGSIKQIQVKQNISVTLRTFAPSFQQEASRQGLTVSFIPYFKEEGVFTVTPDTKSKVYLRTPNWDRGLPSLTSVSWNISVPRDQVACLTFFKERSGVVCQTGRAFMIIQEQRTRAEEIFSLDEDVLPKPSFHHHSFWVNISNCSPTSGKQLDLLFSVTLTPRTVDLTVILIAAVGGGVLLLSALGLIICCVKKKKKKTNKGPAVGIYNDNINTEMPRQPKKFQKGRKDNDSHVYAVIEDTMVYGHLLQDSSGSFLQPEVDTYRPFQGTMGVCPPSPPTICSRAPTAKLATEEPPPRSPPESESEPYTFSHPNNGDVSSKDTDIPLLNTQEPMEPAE

Results are given in words; binding and its absence hold for the method and conditions named. A result given as binding can be weak or reduced; the word gives no strength.

B1: 38E11 (antibody, human IgG1, V domains shown)
VH: EVQLLESGGGLVQPGGSLRLSCAASGFTFSNYAMNWVRQAPGKGLEWVSAISGGGGSTYYADSVKGRFTISRDNSKNTLYLQMNSLRAEDTAVYYCAKESITMVRGVMDYYGMDVWGQGTTVTVSS
VL: DIQLTQSPSFLSASVGDRVTITCRASQGISSYLAWYQQKPGKAPKLLIYAASTLQGGVPSRFSGSGSGTEFTLTISSLQPEDFATYYCQHLNRFPRTFGQGTKVEIK
In the case of B1, the binding entry is on record as “binds”.

(Values after patent US20240084032A1.)
